The list does not hold the whole screen: it gathers tests that were run many times, whatever their T/C, doses with no T/C, and many T/C values between a quarter and a half above the control. Other doses and runs of a compound stand elsewhere. T/C is the treated group as % of the vehicle group. Some doses have a count of surviving animals in place of a T/C: the source holds a T/C of zero for them, seemingly a mark for toxic or unscored doses. Some doses without a T/C left all or most animals alive at the check, yet need not have been tolerated: survival well below the control is almost never listed, so the zero probably covers shortened survival too. Counts of survivors are from the toxicity check (mostly the fifth day) where no day follows; animals may have died later. Schedule codes are those of the source, read here as Q, the interval in days (D) or hours (H), X, the number of doses. Some entries were tested several times; their values stand side by side, smallest first. For survival time, this PubChem deposit counts one and a half times the control or more as active, and values a quarter to a half above the control carry no call in these data; other NCI protocols may use other cut-offs. Some T/C values are followed by the survivors on the day toxicity was checked, most often the fifth; where none is given, no animal had died by that day. Numbered stars: 1 amine (or outer) side, 2 acyl side, 3 side chain; on linkers, the order of the positions; unused ones are H or OH. Bridge positions count the residues as written; N and C are the ends. Square brackets hold non-standard residues; d marks the D form. Peptide text beside a SMILES is read from it. I, II: the chains in the order shown. Actinocin(1to9) = Cc1c2oc3c(C)ccc(C(=O)[*:2])c3nc-2c(C(=O)[*:1])c(N)c1=O; Hyp = O=C(O)[CH]1C[CH](O)CN1; NMeV = CN[CH](C(=O)O)C(C)C; Sar = CNCC(=O)O
Test system: BDF1 mice, B16 melanoma ip, median survival T/C
Assay: NCI In Vivo Anticancer Drug Screen. Data for tumor model B16 Melanoma (intraperitoneal) in B6D2F1 (BDF1) mice
Conditions: T/C endpoint: median survival time, higher T/C = longer survival
Procedure, shortened: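 Values are ratios of treated (T) to vehicle-control (C) measurements of survival or tumor size in tumor-bearing mice.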

[1] = dose: 50.0 mg/kg/injection, schedule: Q01DX009 (ip), vehicle: saline
[2] = dose: 50.0 mg/kg/injection, schedule: Q01DX009 (ip), vehicle: Klucel (hydroxypropylcellulose) (HPC)
[3] = dose: 100.0 mg/kg/injection, schedule: Q01DX009 (ip), vehicle: Klucel (hydroxypropylcellulose) (HPC)
[4] = dose: 200.0 mg/kg/injection, schedule: Q01DX009 (ip), vehicle: Klucel (hydroxypropylcellulose) (HPC)
[5] = dose: 100.0 mg/kg/injection, schedule: Q01DX009 (ip), vehicle: saline
[6] = dose: 400.0 mg/kg/injection, schedule: Q01DX009 (ip), vehicle: Klucel (hydroxypropylcellulose) (HPC)
[7] = dose: 6.25 mg/kg/injection, schedule: Q01DX009 (ip), vehicle: saline with Tween-80
[8] = dose: 25.0 mg/kg/injection, schedule: Q01DX009 (ip), vehicle: saline with Tween-80
[9] = dose: 100.0 mg/kg/injection, schedule: Q01DX009 (ip), vehicle: saline with Tween-80
[10] = dose: 10.0 mg/kg/injection, schedule: Q01DX009 (ip), vehicle: Klucel (hydroxypropylcellulose) (HPC)

## CCCCCCCCCCCCCC[S+](C)C
dose: 6.25 mg/kg/injection, schedule: Q01DX009 (ip), vehicle: saline
  survivor count: 10 of 10
dose: 12.5 mg/kg/injection, schedule: Q01DX009 (ip), vehicle: saline
  survivor count: 9 of 10
dose: 25.0 mg/kg/injection, schedule: Q01DX009 (ip), vehicle: saline
  survivor count: 1 of 10
[1]
  survivor count: 0 of 10

## O=S(c1ccccc1)c1c(Cl)c(Cl)nc(Cl)c1Cl (configuration not stated)
dose: 25.0 mg/kg/injection, schedule: Q01DX009 (ip), vehicle: Klucel (hydroxypropylcellulose) (HPC)
  survivor count: 10 of 10
[2]
  survivor count: 6 of 10
[3]
  survivor count: 0 of 10
[4]
  survivor count: 0 of 10

## FC(F)(F)c1cc(CN(CCCl)CCCl)cc(C(F)(F)F)c1
[1]
  survivor count: 10 of 10
[5]
  survivor count: 10 of 10

## O=C1Nc2ccccc2/C1=C\c1ccccc1O
[2]
  survivor count: 1 of 10 and 10 of 10
[3]
  survivor count: 5 of 10
[4]
  survivor count: 9 of 10
[6]
  survivor count: 7 of 10

## O=C(CC1(Cl)C(F)(F)C(F)(F)C1(F)F)c1ccccc1
dose: 6.0 mg/kg/injection, schedule: Q04DX003 (ip), vehicle: saline
  survivor count: 10 of 10
[7]
  survivor count: 10 of 10
dose: 6.25 mg/kg/injection, schedule: Q04DX003 (ip), vehicle: saline with Tween-80
  T/C: 141 % of control
dose: 9.0 mg/kg/injection, schedule: Q04DX003 (ip), vehicle: saline
  survivor count: 10 of 10
dose: 12.5 mg/kg/injection, schedule: Q04DX003 (ip), vehicle: saline with Tween-80
  T/C: 128 % of control
[8]
  survivor count: 10 of 10

## O=C(OC1C(O)OC2COC(=O)c3cc(O)c(O)c(O)c3-c3c(cc(O)c(O)c3O)C(=O)OC2C1O)c1cc(O)c(O)c(O)c1 (configuration not stated)
dose: 15.0 mg/kg/injection, schedule: Q01DX009 (ip), vehicle: saline
  T/C: 129 % of control
dose: 30.0 mg/kg/injection, schedule: Q01DX009 (ip), vehicle: saline
  survivor count: 10 of 10

## COC(=O)C(Cl)(Cl)N=Nc1c(Cl)cc(Cl)c(C)c1Cl
dose: 400.0 mg/kg/injection, schedule: Q01DX009 (ip), vehicle: saline with Tween-80
  survivor count: 7 of 10

## CN1C2CCC1CC(OC(c1ccccc1)c1ccccc1)C2 (configuration not stated)
[1]
  survivor count: 0 of 10
[5]
  survivor count: 0 of 10
dose: 200.0 mg/kg/injection, schedule: Q01DX009 (ip), vehicle: saline
  survivor count: 0 of 10
dose: 400.0 mg/kg/injection, schedule: Q01DX009 (ip), vehicle: saline
  survivor count: 0 of 10

## O=C(NC(CSCc1ccccc1)C(=O)Oc1ccc([N+](=O)[O-])cc1)OCc1ccccc1 (configuration not stated)
dose: 50.0 mg/kg/injection, schedule: Q01DX009 (ip), vehicle: gum acacia
  survivor count: 10 of 10

## C=CCCCCCCCCC(=O)N(CCOC)CCOC
[9]
  survivor count: 10 of 10

## CC(C)(C[NH-])C[NH-].[Cl][Pt+2][Cl]
dose: 0.25 mg/kg/injection, schedule: Q04DX003 (ip), vehicle: water
  T/C: 133 and 139 % of control
dose: 0.5 mg/kg/injection, schedule: Q04DX003 (ip), vehicle: water
  T/C: 133 % of control
dose: 4.0 mg/kg/injection, schedule: Q04DX003 (ip), vehicle: water
  survivor count: 10 of 10

## CC(C)CN(C)/N=N/c1nc[nH]c1C(N)=O
dose: 37.5 mg/kg/injection, schedule: Q01DX009 (ip), vehicle: carboxymethylcellulose (CMC)
  T/C: 135 % of control
dose: 150.0 mg/kg/injection, schedule: Q01DX009 (ip), vehicle: carboxymethylcellulose (CMC)
  survivor count: 5 of 6
dose: 300.0 mg/kg/injection, schedule: Q01DX009 (ip), vehicle: carboxymethylcellulose (CMC)
  survivor count: 0 of 6

## Cc1c2oc3c(C)ccc(C(=O)NC4C(=O)NC(C(C)C)C(=O)N5CCCC5C(=O)N(C)CC(=O)N(C)C(C(C)C)C(=O)OC4C)c3nc-2c(C(=O)NC2C(=O)NC(C(C)C)C(=O)N3CC(O)CC3C(=O)N(C)CC(=O)N(C)C(C(C)C)C(=O)OC2C)c(N)c1=O (configuration not stated) (I: TV[Hyp][Sar][NMeV] / II: TVP[Sar][NMeV]; ester I:1-I:C, II:1-II:C; linker I:N-II:N via Actinocin(1to9); configuration not given here)
dose: 75.0 micrograms/kg/injection, schedule: Q01DX009 (ip), vehicle: saline + alcohol
  T/C: 133 % of control
dose: 200.0 micrograms/kg/injection, schedule: Q01DX009 (ip), vehicle: saline + alcohol
  survivor count: 8 of 8
dose: 225.0 micrograms/kg/injection, schedule: Q04DX003 (ip), vehicle: saline + alcohol
  T/C: 142 % of control
dose: 300.0 micrograms/kg/injection, schedule: Q01DX009 (ip), vehicle: saline + alcohol
  survivor count: 8 of 8
dose: 300.0 micrograms/kg/injection, schedule: Q04DX003 (ip), vehicle: saline + alcohol
  T/C: 137 and 147 % of control
dose: 450.0 micrograms/kg/injection, schedule: Q04DX003 (ip), vehicle: saline + alcohol
  T/C: 141 % of control
dose: 600.0 micrograms/kg/injection, schedule: Q04DX003 (ip), vehicle: saline + alcohol
  survivor count: 8 of 8
dose: 900.0 micrograms/kg/injection, schedule: Q04DX003 (ip), vehicle: saline + alcohol
  survivor count: 8 of 8

## COc1ccc(C2c3cc4c(c(OC)c3CC3OCC(=O)C32)OCO4)cc1OC (configuration not stated)
[3]
  survivor count: 7 of 9
[4]
  survivor count: 9 of 10

## O=c1[nH]c2ccccc2nc1CBr
[7]
  survivor count: 6 of 6
dose: 12.5 mg/kg/injection, schedule: Q01DX009 (ip), vehicle: saline with Tween-80
  survivor count: 5 of 6
[8]
  survivor count: 1 of 6
dose: 50.0 mg/kg/injection, schedule: Q01DX009 (ip), vehicle: saline with Tween-80
  survivor count: 0 of 6

## O=C1C=C(N2CC2)C(=O)C(N2CC2)=C1N1CC1
dose: 12.0 micrograms/kg/injection, schedule: Q01DX009 (ip), vehicle: saline
  T/C: 126 % of control
dose: 25.0 micrograms/kg/injection, schedule: Q01DX009 (ip), vehicle: saline
  T/C: 126 and 130 % of control
dose: 50.0 micrograms/kg/injection, schedule: Q01DX009 (ip), vehicle: saline
  survivor count: 10 of 10

## COc1ccc(NC(=O)Nc2ccccc2Cl)cc1
[3]
  survivor count: 10 of 10
[4]
  survivor count: 10 of 10
[6]
  survivor count: 10 of 10

## Cc1[nH]ccc2c(C)c3nc4ccccc4c3cc12
dose: 6.25 mg/kg/injection, schedule: Q01DX009 (ip), vehicle: Klucel (hydroxypropylcellulose) (HPC)
  T/C: 140 % of control
dose: 12.5 mg/kg/injection, schedule: Q01DX009 (ip), vehicle: Klucel (hydroxypropylcellulose) (HPC)
  T/C: 148 % of control
[2]
  T/C: 148 % of control

## C=CS(=O)(=O)c1ccccc1
[9]
  survivor count: 9 of 10

## Cc1cc(CN)c(C)cc1CN
dose: 67.0 mg/kg/injection, schedule: Q01DX009 (ip), vehicle: saline
  survivor count: 10 of 10
[5]
  survivor count: 10 of 10
dose: 150.0 mg/kg/injection, schedule: Q01DX009 (ip), vehicle: saline
  survivor count: 10 of 10

## CC1(c2ccc(N(CCCl)CCCl)cc2)NC(=O)NC1=O (configuration not stated)
dose: 2.5 mg/kg/injection, schedule: Q01DX009 (ip), vehicle: Klucel (hydroxypropylcellulose) (HPC)
  survivor count: 10 of 10
[10]
  T/C: 132 % of control [9 of 10 alive]
  survivor count: 10 of 10
dose: 150.0 mg/kg/injection, schedule: Q01DX009 (ip), vehicle: Klucel (hydroxypropylcellulose) (HPC)
  survivor count: 9 of 10
dose: 300.0 mg/kg/injection, schedule: Q01DX009 (ip), vehicle: Klucel (hydroxypropylcellulose) (HPC)
  survivor count: 8 of 10
